Data as given in PubChem BioAssay AID493246 (Drosophila RNAi Screening Center, 2011).
In all, the deposit lists about 21,000 reagents; this is an unselected part of those that have a named target and a result. Of all reagents, 429 (2%) got an active call. 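Values are raw and not normalised between plates; calls rest on per-plate z-scores that were not deposited.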 A number with no mark means an inactive call. The numbers tell different reagents against one gene apart. A plus sign joins genes that one reagent is predicted to hit. Not stated in the record: the amount of reagent, the time to read-out.

Aim: 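Identify essential fly genes by loss of cell viability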 (primary screen)
Cells: Drosophila Kc and S2R+ cells
Reagent: long dsRNA against Drosophila genes
Detection: 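Raw, unnormalised count of remaining cells in each well; per-plate z-scores of cell number underlie the calls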
Direction: Kc cell number and S2R+ cell number: higher = more cells remaining
Rule for the call: 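Active when the per-plate z-score of cell number is 3 or more in the direction of fewer cells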

| gene knocked down | dsRNA no. | Kc cell number, rep 1 | Kc cell number, rep 2 | S2R+ cell number, rep 1 | S2R+ cell number, rep 2 |
| --- | --- | --- | --- | --- | --- |
| Plc21C (GeneID 33204) | 1 | 1.37e6 | 1.52e6 | 1.09e6 | 1.02e6 |
| RpS9 (GeneID 39108) | 1 | 8.83e5 (active) | 1.01e6 | 9.27e5 | 9.39e5 |
| Pmvk (GeneID 35255) | 1 | 1.63e6 | 1.68e6 | 1.37e6 | 5.66e5 |
| CG6465 (GeneID 41274) | 1 | 1.58e6 | 1.66e6 | 1.42e6 | 1.52e6 |
| G9a (GeneID 30971) | 1 | 1.45e6 | 1.47e6 | 1.11e6 | 1.20e6 |
| Bulli (GeneID 38734) | 1 | 1.39e6 | 1.35e6 | 1.12e6 | 1.26e6 |
| Vsx2 (GeneID 31469) | 1 | 1.47e6 | 1.53e6 | 9.84e5 | 1.14e6 |
| Vsx2 (GeneID 31469) | 2 | 1.53e6 | 1.49e6 | 8.93e5 | 9.90e5 |
| Vsx2 (GeneID 31469) | 3 | 1.35e6 | 1.54e6 | 1.00e6 | 1.16e6 |
| Vsx2 (GeneID 31469) | 4 | 1.19e6 (active) | 1.39e6 | 5.18e5 | 6.46e5 |
| CG1827 (GeneID 35989) | 1 | 1.31e6 | 1.34e6 | 1.01e6 | 1.06e6 |
| Cerk (GeneID 40640) | 1 | 1.63e6 | 1.67e6 | 1.16e6 | 1.27e6 |
| CG34429 (GeneID 5740606) | 1 | 1.26e6 | 1.40e6 | 1.39e6 | 1.52e6 |
| Mgat3 (GeneID 318981) | 1 | 1.56e6 | 1.58e6 | 1.04e6 | 1.18e6 |
| moody (GeneID 31168) | 1 | 1.60e6 | 1.55e6 | 1.09e6 | 1.19e6 |
| CG2901 (GeneID 31338) | 1 | 1.61e6 | 1.71e6 | 1.04e6 | 1.20e6 |
| Trs33 (GeneID 41866) | 1 | 1.21e6 | 1.34e6 | 1.17e6 | 1.29e6 |
| CG43902 (GeneID 31948) | 1 | 1.62e6 | 1.58e6 | 9.03e5 | 1.06e6 |
| Mtk (GeneID 36708) | 1 | 1.63e6 | 1.64e6 | 1.26e6 | 1.46e6 |
| CG7352 (GeneID 40997) | 1 | 1.68e6 | 1.88e6 | 1.24e6 | 1.35e6 |
| CG42245 + MEP-1 | 1 | 1.59e6 | 1.73e6 | 1.05e6 | 1.22e6 |
| CG42245 + MEP-1 | 2 | 1.34e6 | 1.41e6 | 9.09e5 | 1.07e6 |
| Tbca (GeneID 43737) | 1 | 4.84e5 | – | 8.04e5 | – |
| Tsp29Fa (GeneID 34211) | 1 | 1.61e6 | 1.68e6 | 1.12e6 | 1.22e6 |
| l(2)34Fd (GeneID 34839) | 1 | 1.25e6 | 1.39e6 | 1.33e6 | 1.32e6 |
| spz (GeneID 43256) | 1 | 5.23e5 | – | 8.38e5 | – |
| CG6508 (GeneID 34493) | 1 | 1.51e6 | 1.58e6 | 1.25e6 | 1.34e6 |
| Shawl (GeneID 5740840) | 1 | 1.69e6 | 1.71e6 | 1.18e6 | 1.30e6 |
| Shawl (GeneID 5740840) | 2 | 1.64e6 | 1.68e6 | 1.18e6 | 1.31e6 |
| Dred (GeneID 40124) | 1 | 1.31e6 | 1.59e6 | 1.25e6 | 1.35e6 |
| CG14673 (retired record) (GeneID 40688) | 1 | 1.35e6 | 1.42e6 | 1.24e6 | 1.37e6 |
| mre11 (GeneID 34565) | 1 | 1.55e6 | 1.65e6 | 1.14e6 | 1.21e6 |
| CG3808 (GeneID 40074) | 1 | 1.64e6 | 1.78e6 | 1.33e6 | 1.49e6 |
| Prosbeta2R2 (GeneID 40621) | 1 | 1.64e6 | 1.86e6 | 1.23e6 | 1.33e6 |
| AGBE (GeneID 326264) | 1 | 1.22e6 | 1.25e6 | 1.06e6 | 1.31e6 |
| CG6325 (GeneID 41268) | 1 | 1.49e6 | 1.57e6 | 1.35e6 | 1.33e6 |
| Dora (GeneID 50356) | 1 | 1.50e6 | 1.59e6 | 9.42e5 | 1.07e6 |
| Dora (GeneID 50356) | 2 | 1.70e6 | 1.72e6 | 1.07e6 | 1.20e6 |
| Dora (GeneID 50356) | 3 | 1.47e6 | 1.50e6 | 1.00e6 | 1.13e6 |
| Dora (GeneID 50356) | 4 | 1.24e6 | 1.30e6 | 8.72e5 | 9.79e5 |
| Dtd (GeneID 41371) | 1 | 1.47e6 | 1.41e6 | 1.21e6 | 1.40e6 |
| GluRIID (GeneID 44483) | 1 | 1.30e6 | 1.35e6 | 1.17e6 | 1.28e6 |
| whd (GeneID 36109) | 1 | 1.37e6 | 1.41e6 | 1.16e6 | 1.24e6 |
| Ccp84Ag (GeneID 40819) | 1 | 1.50e6 | 1.61e6 | 1.36e6 | 1.50e6 |
| CG30334 (GeneID 246545) | 1 | 1.46e6 | 1.44e6 | 1.00e6 | 1.10e6 |
| Tbcc (GeneID 319048) | 1 | 1.41e6 | 1.50e6 | 1.06e6 | 1.16e6 |
| CG42537 (GeneID 8674074) | 1 | 1.51e6 | 1.65e6 | 1.31e6 | 1.46e6 |
| TfIIB (GeneID 34430) | 1 | 1.59e6 | 1.73e6 | 1.19e6 | 1.31e6 |
| kibra (GeneID 41783) | 1 | 1.34e6 | 1.39e6 | 1.27e6 | 1.33e6 |
| kibra (GeneID 41783) | 2 | 1.98e5 (active) | 2.66e5 | 5.13e5 | 5.98e5 |
| CG42566 (GeneID 8674120) | 1 | 5.72e5 | – | 8.49e5 | – |
| CG18234 (GeneID 40024) | 1 | 1.38e6 | 1.50e6 | 1.31e6 | 1.36e6 |
| Dap160 (GeneID 35378) | 1 | 1.37e6 | 1.50e6 | 1.05e6 | 1.09e6 |
| CG30037 (GeneID 246409) | 1 | 1.60e6 | 1.64e6 | 1.34e6 | 1.51e6 |
| fzr (GeneID 45922) | 1 | 1.55e6 | 1.52e6 | 1.07e6 | 1.16e6 |
| CG12147 (GeneID 40651) | 1 | 1.70e6 | 1.89e6 | 1.14e6 | 1.22e6 |
| SMC6 (GeneID 42876) | 1 | 1.43e6 | 1.47e6 | 9.55e5 | 1.05e6 |
| gw (GeneID 43808) | 1 | 3.97e5 (active) | – | 4.59e5 | – |
| gw (GeneID 43808) | 2 | 1.43e6 (active) | 1.37e6 | 5.88e5 | 6.73e5 |
| tHMG2 (GeneID 42651) | 1 | 1.31e6 | 1.23e6 | 9.61e5 | 1.19e6 |
| edin (GeneID 317900) | 1 | 1.66e6 | 1.66e6 | 1.13e6 | 1.41e6 |
| CG1635 (GeneID 43720) | 1 | 5.06e5 | – | 7.64e5 | – |
| 14-3-3epsilon (GeneID 42186) | 1 | 1.37e6 | 1.35e6 | 1.13e6 | 1.22e6 |
| CG12182 (GeneID 38324) | 1 | 1.59e6 | 1.76e6 | 1.37e6 | 1.43e6 |
| CR18275 + CR18166 + CG32817 | 1 | 1.22e6 | 1.62e6 | 1.06e6 | 1.12e6 |
| Rpn6 (GeneID 36638) | 1 | 7.57e5 | 9.19e5 | 6.05e5 | 6.50e5 |
| PSMG1 (GeneID 40719) | 1 | 1.48e6 | 1.51e6 | 1.28e6 | 1.40e6 |
| CG30122 (GeneID 37146) | 1 | 1.52e6 | 1.55e6 | 1.18e6 | 1.24e6 |
| CG30122 (GeneID 37146) | 2 | 1.67e6 | 1.70e6 | 1.26e6 | 1.33e6 |
| CG34304 (retired record) (GeneID 5740404) | 1 | 1.43e6 | 1.59e6 | 1.14e6 | 1.33e6 |
| pen-2 (GeneID 251430) | 1 | 5.54e5 | – | 7.57e5 | – |
| epsilonTry (GeneID 49080) | 1 | 1.60e6 | 1.64e6 | 1.37e6 | 1.46e6 |
| CG34056 (GeneID 38106) | 1 | 1.55e6 | 1.43e6 | 9.95e5 | 1.18e6 |
| Serinc (GeneID 39827) | 1 | 1.46e6 | 1.52e6 | 1.39e6 | 1.51e6 |
| LRP1 (GeneID 35799) | 1 | 1.46e6 | 1.51e6 | 1.23e6 | 1.40e6 |
